Our source for the binding values is PMC7648144.

By UniProt entry, the sequences of proteins in these tests, tags left out.
UniProt P06136: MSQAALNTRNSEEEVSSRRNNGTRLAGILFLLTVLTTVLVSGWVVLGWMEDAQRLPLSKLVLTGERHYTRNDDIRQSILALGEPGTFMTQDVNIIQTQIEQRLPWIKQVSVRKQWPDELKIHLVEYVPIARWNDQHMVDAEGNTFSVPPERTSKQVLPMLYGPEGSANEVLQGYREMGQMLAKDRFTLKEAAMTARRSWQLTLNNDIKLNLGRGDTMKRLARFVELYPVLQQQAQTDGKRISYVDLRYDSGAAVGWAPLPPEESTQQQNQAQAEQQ

Results are given in words; binding and its absence hold for the method and conditions named. Some binding calls cover weakened binding; strength is not graded here. Tags and fused reporters may be left off the sequences shown.

The target in test [1] is T1, DrpB-T18 (DrpB, division ring protein B, formerly YedR, fused to the T18 fragment of Bordetella pertussis adenylate cyclase) (Escherichia coli) (UniProt P76334).
T1 sequence: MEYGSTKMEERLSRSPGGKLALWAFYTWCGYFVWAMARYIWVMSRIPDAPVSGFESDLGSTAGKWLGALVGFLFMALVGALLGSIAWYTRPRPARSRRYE
Briefly: two-hybrid; BACTH in E. coli DHM1, assayed visually by spotting onto minimal medium plates containing Amp, Kan, IPTG and X-gal.

Test [2] deals with T1, DrpB-T18 (DrpB, division ring protein B, formerly YedR, fused to the T18 fragment of Bordetella pertussis adenylate cyclase) (Escherichia coli). Briefly: two-hybrid; bacterial adenylate cyclase two-hybrid (BACTH) in E. coli DHM1; DrpB-T18 (pUT18 derivative) with T25 fusions (pKT25, YmgF* in pKNT25); quantitative beta-galactosidase assay of cultures in LB Amp Kan with 40 uM IPTG, 30 C, 16 h; qualitatively similar when IPTG was omitted.

For “T25 fusion to FtsQ (from UniProt P06136 1-276)”, the binding result in test [1] and in test [2] was “binds” each time.

B1: T25 fusion to DamX (protein, UniProt P11557 1-428)
chain: MDEFKPEDELKPDPSDRRTGRSRQSSERSERTERGEPQINFDDIELDDTDDRRPTRAQKERNEEPEIEEEIDESEDETVDEERVERRPRKRKKAASKPASRQYMMMGVGILVLLLLIIGIGSALKAPSTTSSDQTASGEKSIDLAGNATDQANGVQPAPGTTSAENTQQDVSLPPISSTPTQGQTPVATDGQQRVEVQGDLNNALTQPQNQQQLNNVAVNSTLPTEPATVAPVRNGNASRDTAKTQTAERPSTTRPARQQAVIEPKKPQATVKTEPKPVAQTPKRTEPAAPVASTKAPAATSTPAPKETATTAPVQTASPAQTTATPAAGAKTAGNVGSLKSAPSSHYTLQLSSSSNYDNLNGWAKKENLKNYVVYETTRNGQPWYVLVSGVYASKEEAKKAVSTLPADVQAKNPWAKPLRQVQADLK
As for B1, the binding entry in test [1] and in test [2] was “binds” throughout.

B2: T25 fusion to FtsA (protein, UniProt P0ABH0 1-420)
chain: MIKATDRKLVVGLEIGTAKVAALVGEVLPDGMVNIIGVGSCPSRGMDKGGVNDLESVVKCVQRAIDQAELMADCQISSVYLALSGKHISCQNEIGMVPISEEEVTQEDVENVVHTAKSVRVRDEHRVLHVIPQEYAIDYQEGIKNPVGLSGVRMQAKVHLITCHNDMAKNIVKAVERCGLKVDQLIFAGLASSYSVLTEDERELGVCVVDIGGGTMDIAVYTGGALRHTKVIPYAGNVVTSDIAYAFGTPPSDAEAIKVRHGCALGSIVGKDESVEVPSVGGRPPRSLQRQTLAEVIEPRYTELLNLVNEEILQLQEKLRQQGVKHHLAAGIVLTGGAAQIEGLAACAQRVFHTQVRIGAPLNITGLTDYAQEPYYSTAVGLLHYGKESHLNGEAEVEKRVTASVGSWIKRLNSWLRKEF
For B2, the binding result in test [1] and in test [2] was “binds weakly” each time.

B3: T25 fusion to FtsI (protein, UniProt P0AD68 1-588)
chain: MKAAAKTQKPKRQEEHANFISWRFALLCGCILLALAFLLGRVAWLQVISPDMLVKEGDMRSLRVQQVSTSRGMITDRSGRPLAVSVPVKAIWADPKEVHDAGGISVGDRWKALANALNIPLDQLSARINANPKGRFIYLARQVNPDMADYIKKLKLPGIHLREESRRYYPSGEVTAHLIGFTNVDSQGIEGVEKSFDKWLTGQPGERIVRKDRYGRVIEDISSTDSQAAHNLALSIDERLQALVYRELNNAVAFNKAESGSAVLVDVNTGEVLAMANSPSYNPNNLSGTPKEAMRNRTITDVFEPGSTVKPMVVMTALQRGVVRENSVLNTIPYRINGHEIKDVARYSELTLTGVLQKSSNVGVSKLALAMPSSALVDTYSRFGLGKATNLGLVGERSGLYPQKQRWSDIERATFSFGYGLMVTPLQLARVYATIGSYGIYRPLSITKVDPPVPGERVFPESIVRTVVHMMESVALPGGGGVKAAIKGYRIAIKTGTAKKVGPDGRYINKYIAYTAGVAPASQPRFALVVVINDPQAGKYYGGAVSAPVFGAIMGGVLRTMNIEPDALTTGDKNEFVINQGEGTGGRS
Take B3: the binding entry in test [1] and in test [2] was “binds” each time.

B4: T25 fusion to FtsN (protein, UniProt P29131 1-319)
chain: MAQRDYVRRSQPAPSRRKKSTSRKKQRNLPAVSPAMVAIAAAVLVTFIGGLYFITHHKKEESETLQSQKVTGNGLPPKPEERWRYIKELESRQPGVRAPTEPSAGGEVKTPEQLTPEQRQLLEQMQADMRQQPTQLVEVPWNEQTPEQRQQTLQRQRQAQQLAEQQRLAQQSRTTEQSWQQQTRTSQAAPVQAQPRQSKPASSQQPYQDLLQTPAHTTAQSKPQQAAPVARAADAPKPTAEKKDERRWMVQCGSFRGAEQAETVRAQLAFEGFDSKITTNNGWNRVVIGPVKGKENADSTLNRLKMAGHTNCIRLAAGG
With B4, the binding entry in test [1] and in test [2] was “binds” throughout.

B5: T25 fusion to DedD (protein, UniProt P09549 1-220)
chain: MASKFQNRLVGTIVLVALGVIVLPGLLDGQKKHYQDEFAAIPLVPKAGDRDEPDMMPAATQALPTQPPEGAAEEVRAGDAAAPSLDPATIAANNTEFEPEPAPVAPPKPKPVEPPKPKVEAPPAPKPEPKPVVEEKAAPTGKAYVVQLGALKNADKVNEIVGKLRGAGYRVYTSPSTPVQGKITRILVGPDASKDKLKGSLGELKQLSGLSGVVMGYTPN
Consider B5, for which the binding entry in test [1] and in test [2] was “binds weakly” throughout.
